# Data published in PMC13376213, “Systematic discovery of motif-based interactions of the auxiliary domains of USP family deubiquitinases” (Nature Communications, 2026).
# Biological target: USP20 DUSP2 domain, tag cleaved (for FP) (human)
# Test: fluorescence polarisation; displacement: unlabeled peptide titrated into the domain (at two-fold the KD of the FITC-labeled peptide) with 10 nM FITC-labeled peptide; 50 mM phosphate buffer pH 7.4, DTT, room temperature; estimated KD; both purified
binder,measurement,value
"PYIPMDGEDFQLSPICPE (N-terminally acetylated, C-terminally amidated) [HIF2A peptide 531-548]",binding,binds weakly

# No constants are given. Whether binding was seen depends on the method and setting. Binding calls can cover weak binding; strength is not graded here.
